These are yes or no findings as the source states them, for the method shown. For some of these results: Binding can be weak; no strength is given. For some of these results: Sequences can lack the tags named with a protein.

The chains behind the UniProt entries cited, without tags or fusion partners. Where a name states a change or a piece, a line headed by the entry shows the natural chain unless it says otherwise. Residues count along the entry.
UniProt P9WJV5: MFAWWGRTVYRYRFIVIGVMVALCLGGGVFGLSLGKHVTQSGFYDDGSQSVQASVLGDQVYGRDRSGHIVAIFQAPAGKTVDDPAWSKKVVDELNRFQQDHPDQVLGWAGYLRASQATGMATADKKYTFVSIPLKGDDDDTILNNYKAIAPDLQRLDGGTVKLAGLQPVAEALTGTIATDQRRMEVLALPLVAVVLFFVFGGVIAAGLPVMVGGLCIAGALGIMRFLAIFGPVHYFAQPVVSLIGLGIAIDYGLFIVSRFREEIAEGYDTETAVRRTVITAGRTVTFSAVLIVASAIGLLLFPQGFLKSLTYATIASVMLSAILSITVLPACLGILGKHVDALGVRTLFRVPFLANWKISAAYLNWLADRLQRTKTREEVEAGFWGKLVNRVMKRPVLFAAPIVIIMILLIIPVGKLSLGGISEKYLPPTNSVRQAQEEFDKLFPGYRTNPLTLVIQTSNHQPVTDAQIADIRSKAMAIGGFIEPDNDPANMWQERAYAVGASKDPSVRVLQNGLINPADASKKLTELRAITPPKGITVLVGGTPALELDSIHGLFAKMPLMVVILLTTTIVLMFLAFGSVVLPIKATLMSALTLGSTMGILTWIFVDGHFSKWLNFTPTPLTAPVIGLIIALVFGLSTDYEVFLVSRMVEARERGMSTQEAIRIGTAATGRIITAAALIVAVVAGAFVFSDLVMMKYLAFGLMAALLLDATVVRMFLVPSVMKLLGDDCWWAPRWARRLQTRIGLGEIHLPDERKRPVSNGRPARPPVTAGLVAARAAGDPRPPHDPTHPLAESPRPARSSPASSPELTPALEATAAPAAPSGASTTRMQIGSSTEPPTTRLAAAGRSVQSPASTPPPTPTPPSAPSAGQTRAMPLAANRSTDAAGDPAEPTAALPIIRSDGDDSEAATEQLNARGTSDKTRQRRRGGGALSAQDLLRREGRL
MmpL3tb^1–744, T18/T25 fusion: residues 1-744 of P9WJV5
UniProt P9WJK3: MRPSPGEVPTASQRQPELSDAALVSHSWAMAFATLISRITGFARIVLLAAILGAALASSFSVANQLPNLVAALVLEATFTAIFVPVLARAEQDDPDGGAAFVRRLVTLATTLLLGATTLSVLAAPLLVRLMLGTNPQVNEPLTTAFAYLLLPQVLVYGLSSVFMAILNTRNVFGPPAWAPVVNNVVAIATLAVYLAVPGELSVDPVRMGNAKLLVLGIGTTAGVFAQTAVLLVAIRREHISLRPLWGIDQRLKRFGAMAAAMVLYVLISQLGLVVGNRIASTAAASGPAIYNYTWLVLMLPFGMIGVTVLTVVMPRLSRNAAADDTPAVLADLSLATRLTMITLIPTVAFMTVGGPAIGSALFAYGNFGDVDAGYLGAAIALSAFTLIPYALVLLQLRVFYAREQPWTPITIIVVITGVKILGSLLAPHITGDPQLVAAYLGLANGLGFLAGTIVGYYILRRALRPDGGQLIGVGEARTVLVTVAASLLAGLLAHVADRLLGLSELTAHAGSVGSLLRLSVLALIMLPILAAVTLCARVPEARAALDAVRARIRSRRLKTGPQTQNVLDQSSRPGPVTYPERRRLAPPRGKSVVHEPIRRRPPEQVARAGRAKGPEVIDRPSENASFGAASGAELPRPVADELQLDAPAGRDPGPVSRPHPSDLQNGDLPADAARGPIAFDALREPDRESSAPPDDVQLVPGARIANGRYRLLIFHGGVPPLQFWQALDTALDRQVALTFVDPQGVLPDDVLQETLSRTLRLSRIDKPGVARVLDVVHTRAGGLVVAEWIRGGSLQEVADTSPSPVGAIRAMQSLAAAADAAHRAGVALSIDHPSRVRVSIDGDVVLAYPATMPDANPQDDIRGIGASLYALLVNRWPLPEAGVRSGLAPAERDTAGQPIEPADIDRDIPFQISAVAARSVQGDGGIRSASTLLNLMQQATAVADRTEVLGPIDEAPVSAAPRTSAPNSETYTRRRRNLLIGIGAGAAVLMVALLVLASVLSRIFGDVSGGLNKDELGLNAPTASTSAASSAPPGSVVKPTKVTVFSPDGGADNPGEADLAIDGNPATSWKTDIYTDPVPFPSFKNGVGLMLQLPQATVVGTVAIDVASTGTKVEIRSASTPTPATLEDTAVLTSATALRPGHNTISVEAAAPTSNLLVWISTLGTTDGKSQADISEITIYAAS

The results in this text go back to publication PMC6656915.

For test [1], the target named is MmpL3 protein from M. tuberculosis, C-terminally hexahistidine-tagged, devoid of gfp fusion (M. tuberculosis) (UniProt P9WJV5). The test is described as follows: SPR; MmpL3 immobilised on CM5 chip; analytes injected at two-fold increasing concentrations from 0.6 µM up to 10 µM, 10 µL/min for 30 sec, dissociation 180 sec, 25 °C; 20 mM HEPES pH 7.4, 150 mM NaCl, 0.2% Triton X-100 (0.03% DDM instead for AftD); global fit to the 1:1 Langmuir binding model; both purified. For orientation: SPR reads the build-up and loss of mass on a sensor chip optically.

Test [2] concerns the target T1, Rv0227c, T18/T25 fusion (M. tuberculosis) (UniProt P96409).
T1 sequence: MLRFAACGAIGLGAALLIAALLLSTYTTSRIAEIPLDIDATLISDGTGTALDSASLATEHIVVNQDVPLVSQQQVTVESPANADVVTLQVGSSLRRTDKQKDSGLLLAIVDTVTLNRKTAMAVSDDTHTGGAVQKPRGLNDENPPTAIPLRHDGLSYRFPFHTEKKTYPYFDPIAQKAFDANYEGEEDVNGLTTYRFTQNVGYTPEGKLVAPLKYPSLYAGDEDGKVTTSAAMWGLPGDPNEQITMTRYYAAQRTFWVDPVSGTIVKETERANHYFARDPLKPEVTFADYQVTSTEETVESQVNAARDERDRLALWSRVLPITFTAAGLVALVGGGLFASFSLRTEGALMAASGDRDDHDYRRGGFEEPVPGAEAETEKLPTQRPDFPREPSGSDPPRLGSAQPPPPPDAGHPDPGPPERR
The test is described as follows: two-hybrid.

Test [3] has as its target MmpL3tb^1–744, T18/T25 fusion (M. tuberculosis) (UniProt P9WJV5). Briefly: two-hybrid.
Test [4] has as its target MmpL3 (full-size), T18/T25 fusion (M. tuberculosis) (UniProt P9WJV5). Briefly: two-hybrid.

His-tagged MviN (from UniProt P9WJK3): the binding result in test [1] was “no binding (tested: 10 µM)”.
With “TmaT, T18/T25 fusion (from UniProt P96410)”, the binding result in test [2], in test [3] and in test [4] was “binds” throughout.
